These are yes or no findings as the source states them, for the method shown. A result given as binding can be weak or reduced; the word gives no strength.

The target of this assay is human IL-7Rα expressed on human T cells (whole blood / PBMCs) (human). In words: flow cytometry, T cells of human whole blood.

B1: Anti-IL-7R Antibody (Antibody A) (antibody, human IgG1, kappa, V domains shown)
VH: EVQLVESGGGLVQPGRSLRLSCAASGFTFDDHAMHWVRQAPGKGLEWVSGISWNSRGIGYADSVKGRFTIFRDNAKNSLYLQMNSLRAEDTALYYCAKDEYSRGYYVLDVWGQGTTVTVSS
VL: AIQLTQSPSSLSASVGDRVTITCRASQGISSALAWYQQKPGKAPKLLIYDASSLESGVPSRFSGSGSGTDFTLTISSLQPEDFATYYCQQFNSYPLWITFGQGTRLEIKR
B1: the binding result was “binds”.

These data come from patent US20220017627A1.
